From the supplement of paper PMC7858590
Values joined by “and” are separate entries in the source; they are usually repeats but may differ in a detail not shown here. Equal entries are not always repeated. ± gives the standard deviation of the averaged measurements. The list shows a part of the results. Repeats in this data set agree poorly, so a single value says little.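 Macrophages came from blood monocytes pooled from four healthy donors and grown with M-CSF; these M1-like cells were treated with compounds that had pushed resting macrophages toward the M2-like state in a first-round screen. The Z-score is a t-test comparing cell eccentricity (about 1000 cells per well) with same-row DMSO wells; a compound counts as reprogramming when it passes the M2 cutoff of +6 set by standard cytokine controls (the M1 cutoff is −4).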

system: human monocyte-derived macrophages (polarized); assay: cell shape (eccentricity) Z-score vs DMSO control; macrophage state: M1-polarized (IFNg + TNFa), cytokines removed before treatment; higher = more elongated, M2-like morphology; conditions: 24 h; 5 µM

Row | Compound | cell shape (Z-score)
1 | CC1(CCOC2OC(CO)C(O)C(O)C2O)CCC2C(=CCC3C(C)(C(=O)O)CCCC23C)C1 (stereo not given) | -0.103 ± 3.3
2 | COc1cc2ncnc(Nc3ccc(F)c(Cl)c3)c2cc1OCCCN1CCOCC1 | 0.996 ± 1.8
3 | O=C(Cc1ccc(-c2ccc(OCCN3CCOCC3)cc2)cn1)NCc1ccccc1 | 0.209 ± 1.1
4 | CCCCOC(=O)c1ccc(N)cc1 | 0.209 ± 3.2
5 | CC1(C)CCC(C)(C)c2cc(C(=O)Nc3ccc(C(=O)O)cc3)ccc21 | 0.101 ± 7.3
6 | Cc1cc(O)cc(=O)o1 | 0.185 ± 1.4
7 | O=c1cc(-c2cccc3c2Sc2ccccc2S3)oc(N2CCOCC2)c1 | 6.18 ± 8.9
8 | Cc1ccc(C(=O)Nc2ccc(S(=O)(=O)O)c3cc(S(=O)(=O)O)cc(S(=O)(=O)O)c23)cc1NC(=O)c1cccc(NC(=O)Nc2cccc(C(=O)Nc3cc(C(=O)Nc4ccc(S(=O)(=O)O)c5cc(S(=O)(=O)O)cc(S(=O)(=O)O)c45)ccc3C)c2)c1 | 2.07 ± 8
9 | Cc1[nH]c2ccccc2c1CCNCc1ccc(/C=C/C(=O)NO)cc1 | 9.66
10 | Cc1c(C(N)=O)cc([N+](=O)[O-])cc1[N+](=O)[O-] | -1.42 ± 1.3
11 | CC[C@@H]1C(=O)N(C)c2cnc(Nc3ccc(C(=O)NC4CCN(C)CC4)cc3OC)nc2N1C1CCCC1 | 9.88
12 | COc1cc2c(Oc3ccc4[nH]c(C)cc4c3F)ncnc2cc1OCCCN1CCCC1 | -4.25 ± 6.9
13 | Cn1cc(C2=C(c3cn(CCCSC(=N)N)c4ccccc34)C(=O)NC2=O)c2ccccc21 | -4.55 ± 2.7
14 | C#Cc1cccc(Nc2ncnc3cc(OCCOC)c(OCCOC)cc23)c1 | -0.865 ± 1.9
15 | COc1cccc(NC(=O)/C=C/c2ccc(Cl)cc2)c1 | 0.803 ± 1.7
16 | C[C@H]1[C@H](NC(=O)/C(=N\OC(C)(C)C(=O)O)c2csc(N)n2)C(=O)N1S(=O)(=O)O | -2.56 ± 6.3

Row | Compound | cell shape (Z-score)
17 | C=C1CC[C@@H]2[C@](C)(CO[C@@H]3O[C@H](CO)[C@@H](O)[C@H](O)[C@H]3O)CCC[C@@]2(C)[C@@H]1CCC1=CCOC1=O | -0.596 ± 1.5
18 | Nc1nc(Nc2ccc3c(c2)CCC(N2CCCC2)CC3)nn1-c1cc2c(nn1)-c1ccccc1CCC2 (stereo not given) | -5.28 ± 1.4
19 | CCc1cnn2c(NCc3ccc[n+]([O-])c3)cc(N3CCCC[C@H]3CCO)nc12 | -1.56 ± 6
20 | CC1CC(=O)c2c(ccc3c2C(=O)c2cccc(O)c2C3O)C1 (stereo not given) | -1.61 ± 5.9
21 | NC(N)=NCCNS(=O)(=O)c1cccc2cnccc12 | -0.298 ± 5.5
22 | CN1CCN(c2nc(C3=C(c4c[nH]c5ccccc45)C(=O)NC3=O)c3ccccc3n2)CC1 | -0.749 ± 8
23 | [O-][NH2+]c1ccc(O)c2ncccc12 | -1.96 ± 3
24 | CCN(CC)CCOc1ccc2c(c1)C(=O)c1cc(OCCN(CC)CC)ccc1-2 | -1.87 ± 2.9
25 | Cn1cnc(-c2cc3nccc(Oc4ccc(NC(=S)NC(=O)Cc5ccccc5)cc4F)c3s2)c1 | 4.71 ± 7.1
26 | C[C@]1(CO)CN(c2cc(C(=O)Nc3ccc4c(c3)-c3c(c(C(N)=O)nn3-c3ccc(F)cc3)CC4)c(Cl)cn2)C[C@@]1(C)CO | -5.96 ± 2.9
27 | Cc1nn(C)c2nc(NNC(=O)Nc3cc(Cl)nc(Cl)c3)cc(C(C)C)c12 | 5.29
28 | O=C(c1ccc(/C=C/c2n[nH]c3ccccc23)cc1)N1CCNCC1 | 7.38
29 | CNC(=O)c1cc(Oc2ccc(NC(=O)Nc3ccc(Cl)c(C(F)(F)F)c3)cc2)ccn1 | 9.88
30 | CNC(=O)c1cc(Oc2ccc(NC(=O)Nc3ccc(Cl)c(C(F)(F)F)c3)c(F)c2)ccn1 | 6.1 ± 5.5
31 | NC(=O)Nc1cc(-c2cccc(F)c2)sc1C(=O)N[C@H]1CCCNC1 | 0.624 ± 0.57
32 | COc1ccc(N(C(=O)c2ccccc2)S(=O)(=O)c2cc(OC)ccc2OC)cc1 | -2.29 ± 1.1

same assay, conditions: 24 h; 10 µM

Row | Compound | cell shape (Z-score)
33 | CC1(CCOC2OC(CO)C(O)C(O)C2O)CCC2C(=CCC3C(C)(C(=O)O)CCCC23C)C1 (stereo not given) | 3.5 ± 4.7
34 | COc1cc2ncnc(Nc3ccc(F)c(Cl)c3)c2cc1OCCCN1CCOCC1 | -5.18 ± 2.3
35 | O=C(Cc1ccc(-c2ccc(OCCN3CCOCC3)cc2)cn1)NCc1ccccc1 | -0.21 ± 3.2
36 | CCCCOC(=O)c1ccc(N)cc1 | -0.923 ± 4.8
37 | CC1(C)CCC(C)(C)c2cc(C(=O)Nc3ccc(C(=O)O)cc3)ccc21 | -1.03 ± 6.2
38 | Cc1cc(O)cc(=O)o1 | -6.58 ± 6.3
39 | O=c1cc(-c2cccc3c2Sc2ccccc2S3)oc(N2CCOCC2)c1 | 4.41 ± 11
40 | Cc1ccc(C(=O)Nc2ccc(S(=O)(=O)O)c3cc(S(=O)(=O)O)cc(S(=O)(=O)O)c23)cc1NC(=O)c1cccc(NC(=O)Nc2cccc(C(=O)Nc3cc(C(=O)Nc4ccc(S(=O)(=O)O)c5cc(S(=O)(=O)O)cc(S(=O)(=O)O)c45)ccc3C)c2)c1 | -6.39 ± 8.2
41 | Cc1[nH]c2ccccc2c1CCNCc1ccc(/C=C/C(=O)NO)cc1 | 10.4
42 | Cc1c(C(N)=O)cc([N+](=O)[O-])cc1[N+](=O)[O-] | -5.88 ± 4.8
43 | CC[C@@H]1C(=O)N(C)c2cnc(Nc3ccc(C(=O)NC4CCN(C)CC4)cc3OC)nc2N1C1CCCC1 | 10.9
44 | COc1cc2c(Oc3ccc4[nH]c(C)cc4c3F)ncnc2cc1OCCCN1CCCC1 | -5.03 ± 6
45 | Cn1cc(C2=C(c3cn(CCCSC(=N)N)c4ccccc34)C(=O)NC2=O)c2ccccc21 | -3.2 ± 1.3
46 | C#Cc1cccc(Nc2ncnc3cc(OCCOC)c(OCCOC)cc23)c1 | -2.64 ± 5.5
47 | COc1cccc(NC(=O)/C=C/c2ccc(Cl)cc2)c1 | 1.65 ± 1.3
48 | C[C@H]1[C@H](NC(=O)/C(=N\OC(C)(C)C(=O)O)c2csc(N)n2)C(=O)N1S(=O)(=O)O | -9.48 ± 7.7
49 | C=C1CC[C@@H]2[C@](C)(CO[C@@H]3O[C@H](CO)[C@@H](O)[C@H](O)[C@H]3O)CCC[C@@]2(C)[C@@H]1CCC1=CCOC1=O | 0.607 ± 3.2

Row | Compound | cell shape (Z-score)
50 | Nc1nc(Nc2ccc3c(c2)CCC(N2CCCC2)CC3)nn1-c1cc2c(nn1)-c1ccccc1CCC2 (stereo not given) | -8.11 ± 5.4
51 | CCc1cnn2c(NCc3ccc[n+]([O-])c3)cc(N3CCCC[C@H]3CCO)nc12 | -5.36 ± 7.2
52 | Cc1cc(Nc2cc(N3CCN(C)CC3)nc(Sc3ccc(NC(=O)C4CC4)cc3)n2)n[nH]1 | 3.75 and 5.81 and 5.13
53 | CC1CC(=O)c2c(ccc3c2C(=O)c2cccc(O)c2C3O)C1 (stereo not given) | -1.23 ± 5.2
54 | NC(N)=NCCNS(=O)(=O)c1cccc2cnccc12 | 1.37 ± 3.3
55 | CN1CCN(c2nc(C3=C(c4c[nH]c5ccccc45)C(=O)NC3=O)c3ccccc3n2)CC1 | -0.579 ± 2.7
56 | [O-][NH2+]c1ccc(O)c2ncccc12 | 0.00797 ± 0.46
57 | CCN(CC)CCOc1ccc2c(c1)C(=O)c1cc(OCCN(CC)CC)ccc1-2 | -4.24 ± 3.8
58 | Cn1cnc(-c2cc3nccc(Oc4ccc(NC(=S)NC(=O)Cc5ccccc5)cc4F)c3s2)c1 | 7.36 ± 0.56
59 | C[C@]1(CO)CN(c2cc(C(=O)Nc3ccc4c(c3)-c3c(c(C(N)=O)nn3-c3ccc(F)cc3)CC4)c(Cl)cn2)C[C@@]1(C)CO | -8.14 ± 0.75
60 | Cc1nn(C)c2nc(NNC(=O)Nc3cc(Cl)nc(Cl)c3)cc(C(C)C)c12 | 7.25
61 | O=C(c1ccc(/C=C/c2n[nH]c3ccccc23)cc1)N1CCNCC1 | 8.03 ± 2.3
62 | CNC(=O)c1cc(Oc2ccc(NC(=O)Nc3ccc(Cl)c(C(F)(F)F)c3)cc2)ccn1 | 13.6
63 | CNC(=O)c1cc(Oc2ccc(NC(=O)Nc3ccc(Cl)c(C(F)(F)F)c3)c(F)c2)ccn1 | 7.11
64 | NC(=O)Nc1cc(-c2cccc(F)c2)sc1C(=O)N[C@H]1CCCNC1 | 6.78 ± 4.4
65 | COc1ccc(N(C(=O)c2ccccc2)S(=O)(=O)c2cc(OC)ccc2OC)cc1 | 2.03 ± 3.9
